Laboratory results as given in PMC4007430.
No constants are given. Whether binding was seen depends on the method and setting. A result given as binding can be weak or reduced; the word gives no strength.

Protein sequences, listed by entry. Tags and fused reporters are not part of them. Lines headed by an entry give the natural chain unless they say otherwise; changes in a name come on top.
UniProt O00590: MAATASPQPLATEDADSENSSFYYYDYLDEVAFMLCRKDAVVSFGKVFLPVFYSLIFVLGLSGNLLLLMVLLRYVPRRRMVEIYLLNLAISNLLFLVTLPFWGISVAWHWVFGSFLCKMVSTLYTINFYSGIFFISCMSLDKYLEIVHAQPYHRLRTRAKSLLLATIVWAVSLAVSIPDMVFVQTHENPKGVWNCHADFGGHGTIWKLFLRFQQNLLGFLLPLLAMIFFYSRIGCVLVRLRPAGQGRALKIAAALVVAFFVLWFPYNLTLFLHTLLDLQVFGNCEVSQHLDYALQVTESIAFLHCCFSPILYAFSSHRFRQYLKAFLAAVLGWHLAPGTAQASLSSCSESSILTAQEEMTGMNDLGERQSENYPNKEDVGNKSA

Columns and labels:
Test in all cases: flow cytometry on cells; Alexa Fluor 647-labelled chemokine added to HEK 293 cells expressing HA-ACKR2 or mutants, incubated at 37 °C in 5% CO2 (binding and uptake), washed in ice-cold FACS buffer, mean fluorescence intensity; in some panels cells were pretreated with sodium chlorate (30-150 mM), siRNA to TPST1 and/or TPST2, or 2 μM staphopain A; only the binder purified
[1] = molecular target: HA-ACKR2 mutant 5 (second tyrosine mutated, YFYDY) (human) (UniProt O00590)
[2] = molecular target: HA-ACKR2 mutant 6 (only first tyrosine present, YFFDF) (human) (UniProt O00590)
[3] = molecular target: HA-ACKR2 mutant 7 (only second tyrosine present, FYFDF) (human) (UniProt O00590)
[4] = molecular target: HA-ACKR2 mutant 8 (only third tyrosine present, FFYDF) (human) (UniProt O00590)
[5] = molecular target: HA-ACKR2 mutant 9 (only fourth tyrosine present, FFFDY) (human) (UniProt O00590)

Measured: binding

B1: CCL22 labeled with Alexa Fluor 647 (ligand, UniProt O00626 25-93)
chain: GPYGANMEDSVCCRDYVRYRLPLRVVKHFYWTSDSCPRPGVVLLTFRDKEICADPRVPWVKMILNKLSQ
modifications: Alexa Fluor 647 label (site not stated)
binds: [1] | [2] | [3] | [4] | [5]
